PubChem BioAssay AID504793 | Drosophila RNAi Screening Center, 2011

Purpose: 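Whole-genome screen for parts of the DNA damage checkpoint at G2/M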 (primary screen)
Cell system: Drosophila S2R+ cells
Reagent: long dsRNA against Drosophila genes, about 0.25 µg dsRNA per well
Timing: 4 days of dsRNA, then 4 hours of drug before read-out
Treatment: doxorubicin 0.5 µM for 4 hours to cause double-strand breaks, in cells also given a low, harmless dose of dsRNA against nbs to sensitise the assay
Measurement: 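Mitotic index as the number of phospho-histone H3-positive cells in each well following doxorubicin, given as raw counts without normalisation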
Scale: mitotic cells: higher = more cells in mitosis, weaker G2 arrest
Call rule: 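a call needs confirmation in secondary tests, with other dsRNAs and a check of mitotic timing without damage, not just a high primary count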
Calls: active = confirmed in follow-up tests; inactive = not confirmed
The screen tested about 23,000 reagents; this is a random part of those with a known target gene and a result. Over the whole deposit, 62 (0.27%) got an active call. 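Calls come from follow-up tests whose scores are not deposited, so confirmed genes may have low counts here; counts are not normalised per plate.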 Raw values vary from plate to plate and are shown uncorrected. Reagents against one gene are numbered here.

no.	target gene	reagent no.	mitotic cells, replicate 1	Call
1	CG7149	1	9	inactive
2	Adar	1	19	inactive
3	Plc21C	1	4	inactive
4	RpL36	1	12	inactive
5	polybromo	1	2	inactive
6	svr	1	5	inactive
7	svr	2	13	inactive
8	svr	3	6	inactive
9	Caf1-55	1	2	inactive
10	mRRF2	1	10	inactive
11	Osi6	1	12	inactive
12	Osi6	2	4	inactive
13	bin3	1	10	inactive
14	RluA-1	1	11	inactive
15	RluA-1	2	5	inactive
16	CG7860	1	4	inactive
17	CG31467	1	1	inactive
18	CG31467	2	9	inactive
19	Cpsf100	1	6	inactive
20	Cpsf100	2	7	inactive
21	CG32816	1	5	inactive
22	CG13038	1	5	inactive
23	Ccz1	1	3	inactive
24	Ubc7	1	15	inactive
25	SMC5	1	3	inactive
26	brv1	1		inactive
27	Or47a	1	1	inactive
28	CG9396	1	6	inactive
29	CG9396	2	8	inactive
30	okr	1	5	inactive
31	okr	2	4	inactive
32	Vti1a	1	4	inactive
33	BCL7-like	1	6	inactive
34	BCL7-like	2	4	inactive
35	CG11756	1	6	inactive
36	CG11756	2	2	inactive
37	CR31541 (retired record)	1	8	inactive
38	CR31541 (retired record)	2	10	inactive
39	CG2225	1	6	inactive
40	CG2225	2	7	inactive
41	chb	1	170	inactive
42	chb	2	99	inactive
43	CG34051	1	8	inactive
44	Pex3	1	10	inactive
45	PolE2	1	9	inactive

A portion of the results above:
no.	target gene	reagent no.	mitotic cells, replicate 1	Call
13	bin3	1	10	inactive
14	RluA-1	1	11	inactive
15	RluA-1	2	5	inactive
16	CG7860	1	4	inactive
17	CG31467	1	1	inactive
18	CG31467	2	9	inactive
